Taken from: PubChem BioAssay AID602203 (INSERM, 2012)

Aim: 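Follow-up of knock-downs that sensitize or protect A549 cells against cisplatin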 (follow-up of hits)
Cells: human A549 lung cancer cells
Reagents: siRNA pair against human genes
Challenge: cisplatin at a dose killing half of control-siRNA cells, given 48 h after transfection
Read-out: 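Two siRNAs per gene scored +1 protective, -1 sensitizing, 0 if toxic by LDH or growth-reducing by WST-1; cisplatin given 48 h later at 50% control kill; scores summed, mean death shift versus control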
Reading the numbers: summed siRNA score for cisplatin death: higher = more siRNAs reduced cisplatin-induced cell death; change in cisplatin death versus control: higher = fewer cells died than in control
Call rule: In these data the active calls have summed siRNA score for cisplatin death at about -3 or lower, or at about 3 or higher
The whole screen tested 999 reagents; this is a random part of them. In the full data, 85 (8.5%) are marked active. 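Unclear how single-siRNA scores of -1, 0 or +1 give the printed -4 to 4 range; calls lie near -3 or 3 and beyond.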 Not given: the amount of reagent, the time to read-out, the dose of the treatment.

The first 6 entries as a preview:
target gene,summed siRNA score for cisplatin death,change in cisplatin death versus control (percentage points),activity call
PAGE2,0,,inactive
B4GALNT1,1,,inactive
MBD3L2,0,,inactive
LIPC,-3,-13.8,active
MMP14,0,,inactive
PANK1,1,,inactive

Main list, from the start:
target gene,summed siRNA score for cisplatin death,change in cisplatin death versus control (percentage points),activity call
PAGE2,0,,inactive
B4GALNT1,1,,inactive
MBD3L2,0,,inactive
LIPC,-3,-13.8,active
MMP14,0,,inactive
PANK1,1,,inactive
FOXD2,1,,inactive
CCDC125,1,,inactive
POMC,0,,inactive
CD248,1,,inactive
CDC20,1,,inactive
ZNF10,-2,,inactive
TXNRD2,-1,,inactive
ZRANB1,1,,inactive
LOC338734,-1,,inactive
ADAR,-3,-9.46,active
DEFB1,-2,,inactive
LOC199897 (retired record),0,,inactive
OGFRP1,1,,inactive
TMPRSS11F,1,,inactive
FOXN2,0,,inactive
GSTM1,0,,inactive
ASRGL1,-2,,inactive
COX7A2,1,,inactive
LOC402300,0,,inactive
MPV17,-2,,inactive
COX7C,4,10.8,active
PTK2,1,,inactive
RNF151,-1,,inactive
UNKL,1,,inactive
LOC440445,-1,,inactive
PLTP,-2,,inactive
MTMR4,0,,inactive
ACHE,-3,-9.41,active
PER1,-2,,inactive
IRF5,1,,inactive
MSH6,1,,inactive
LOC440943,0,,inactive
SLC4A9,1,,inactive
LOC440035,1,,inactive
SIGLEC12,1,,inactive
SLC44A5,0,,inactive
KRT5,0,,inactive
HAPLN1,2,,inactive
ANKRD23,-2,,inactive
CCT8,-1,,inactive
XYLB,-1,,inactive
OR52L1,0,,inactive
INPP5J,-1,,inactive
ZRANB3,1,,inactive
DNMT3L,-1,,inactive
PRSS21,-3,-9.37,active
PRIM1,-1,,inactive
MYOG,-1,,inactive
HIRIP3,-4,-10.3,active
LOC285588,1,,inactive
LOC339997,1,,inactive
ZNF503-AS2,-1,,inactive
FRAT2,-1,,inactive
CRIM1,-2,,inactive
SLF2,-1,,inactive
LOC442115,2,,inactive
KRT1,0,,inactive
TIMM8B,-1,,inactive
TSTD2,0,,inactive
LOC440222,1,,inactive
BACH2,-1,,inactive
MBD1,0,,inactive
CRLF3,0,,inactive
UPRT,1,,inactive
OGFRL1,0,,inactive
CDH20,0,,inactive
LOC387880,-1,,inactive
